Data as given in PMC12431657, “Discovery and mechanistic insights of dibenzoylmethane as a broad spectrum inhibitor of coronavirus” (PLOS Pathogens, 2025).
Counter-ions that a name gives are not always drawn. Hit rate of the full screen: of about 3,300 compounds, about 60 (2%) showed an effect of 50% or more. The list shows a part of the results.

What follows are compounds tested on HCoV-OC43. Details: 24 h post infection, 1 h compound pre-incubation; 10 µM; inhibitor.
Parameters: species or system RD; HTS, protection from HCoV-OC43 induced cell death, luminescent cell viability (CellCounting-Lite 2.0), inhibition rate

SMILES | OC43 Inhibition rate [%]
COc1cc(/C=C/C(=O)O[C@H]2[C@H](O)[C@@H](CO)O[C@@]2(CO)O[C@H]2O[C@H](CO)[C@@H](O)[C@H](O)[C@H]2O)cc(OC)c1OC [Glomeratose A] | -0.4
COc1c(OC)c2occc2c2oc(=O)ccc12 [Pimpinellin] | -1
COc1cc(CC(=O)O)ccc1O [Homovanillic acid] | 4.3
CC(=O)O[C@@]12CO[C@@H]1C[C@H](O)[C@@]1(C)C(=O)[C@H](O)C3=C(C)[C@@H](O)C[C@@](O)([C@@H](OC(=O)c4ccccc4)[C@H]21)C3(C)C [10-Deacetylbaccatin III] | 3.5
C[C@H]1[C@H](C)CC[C@]2(C)CC[C@]3(C)C(=CC(=O)[C@@H]4[C@@]5(C)CC[C@@H](O)[C@](C)(C(=O)O)[C@@H]5CC[C@]43C)[C@H]12 [11-Keto-beta-boswellic acid] | 0.1
OC1OC[C@@H](O)[C@H](O)[C@@H]1O (stereo partly drawn) [D-Lyxose] | -0.4
CCCCCCCCO [1-Octanol] | 2.3
O=C(O)/C=C/c1ccccc1O [2-Hydroxycinnamic acid] | 0.5
C[C@@H]1CC[C@@]2(OC1)O[C@H]1C[C@H]3[C@@H]4CC[C@H]5C[C@@H](O)[C@H](O)C[C@]5(C)[C@H]4CC[C@]3(C)[C@H]1[C@@H]2C [Gitogenin] | 0.1
COc1cc(C(=O)O)cc(O)c1O [3-O-Methylgallic acid] | 0.1
CSCCC(O)C(=O)O (stereo not shown) [Calcium 2-hydroxy-4-(methylthio)butanoate] | 1.2
CC(=O)NCCc1ccc(O)c(O)c1 [N-acetyldopamine] | -0.6
NCCCCCN [Pentane-1,5-diamine (dihydrochloride)] | -0.1
CC(=O)NCCCCCN [N-(5-Aminopentyl)acetamide] | -0.5
C[C@H]1CCCC(=O)CCCCCc2cc(O)cc(O)c2C(=O)O1 [Zearalanone] | 38.7
Nc1nc(=O)n([C@H]2C[C@H](O)[C@@H](CO)O2)cc1CO [5-Hydroxymethyl-2’-deoxycytidine] | -0.8
CC[C@H](CC[C@@H](C)[C@H]1CC[C@H]2[C@@H]3CC=C4C[C@@H](O[C@@H]5O[C@H](CO)[C@@H](O)[C@H](O)[C@H]5O)CC[C@]4(C)[C@H]3CC[C@]12C)C(C)C [Daucosterol] | -0.3
CC[C@]1(O)C[C@@H]2CN(CCc3c([nH]c4ccccc34)[C@@](C(=O)OC)(c3cc4c(cc3OC)N(C)[C@H]3[C@@](O)(C(=O)OC)[C@H](OC(C)=O)[C@]5(CC)C=CCN6CC[C@]43[C@@H]65)C2)C1 [Vinblastine (sulfate)] | 21.5
C[C@H]1CC[C@@H](C(C)(C)O)CC2=C1CC[C@@H]2C [Guaiol] | 1
CC1=CC[C@@]23C[C@@H]1C(C)(C)[C@@H]2CC[C@H]3C [(-)-Cedrene] | 0.1

SMILES | OC43 Inhibition rate [%]
CC(=O)Nc1ccc(S(=O)(=O)O)c2cc(S(=O)(=O)O)c(N=Nc3ccccc3)c(O)c12 [Lignin] | 0
CCCCC(O)C(=O)O (stereo not shown) [2-Hydroxyhexanoic acid] | 1.1
CC(C)(CC(=O)O)C(=O)O [2,2-Dimethylsuccinic acid] | -3.4
O=C(O)CCCCCCCCCCC(=O)O [Dodecanedioic acid] | -0.8
COc1ccc(-c2oc3c4c(cc(O)c3c(=O)c2O)OC(C)(C)CC4)cc1 [β-Anhydroicaritin] | 0.9
CC1=CC[C@H]2C[C@@H]1C2(C)C [(-)-α-Pinene] | -0.6
CCCCCCCC/C=C\CCCCCCCC(=O)OC [Methyl oleate] | 0
N[C@H](C=O)[C@@H](O)[C@H](O)[C@H](O)CO [(2S,3R,4S,5R)-2-Amino-3,4,5,6-tetrahydroxyhexanal hydrochloride] | -1.6
CC(C)CCC[C@@H](C)[C@H]1CC[C@H]2[C@@H]3CC=C4C[C@@H](O)CC[C@]4(C)[C@H]3CC[C@]12C [Cholesterol] | -3.4
Nc1ccn([C@@H]2O[C@H](CO)[C@@H](O)[C@H]2O)c(=O)n1 [Cytidine] | 0
O=C(/C=C/c1ccccc1)OCc1ccccc1 [Benzyl cinnamate] | 2
N[C@@H](Cc1ccc(O)c(Cl)c1)C(=O)O [3-Chloro-L-tyrosine] | 0.8
CC1(C)O[C@H]2CC(=O)OC[C@]23[C@H]2CC[C@@]4(C)[C@H](c5ccoc5)OC(=O)[C@H]5O[C@]54[C@]2(C)[C@@H](O)C(=O)[C@@H]13 [Rutaevin] | -0.6
COc1cc(O)c2c(c1)O[C@H](c1ccc(O)cc1)CC2=O [Sakuranetin] | 0.3
COc1cc(O)c2c(=O)c(-c3ccc(O)cc3)coc2c1 [Prunetin] | 0.3
C/C=C(/C)C(=O)O[C@H]1[C@H](O)[C@]2(COC(C)=O)[C@H](O)C[C@]3(C)C(=CC[C@@H]4[C@@]5(C)CC[C@H](O[C@@H]6O[C@H](C(=O)O)[C@@H](O[C@@H]7O[C@H](CO)[C@@H](O)[C@H](O)[C@H]7O)[C@H](O)[C@H]6O[C@@H]6O[C@H](CO)[C@@H](O)[C@H](O)[C@H]6O)[C@](C)(CO)[C@@H]5CC[C@]43C)[C@@H]2CC1(C)C [Isoescin IB] | -1.3
COc1cc(/C=C/CO)cc(OC)c1O[C@@H]1O[C@H](CO)[C@@H](O)[C@H](O)[C@H]1O [Syringin] | -0.5
O=C(O)CC(O)(CC(=O)OCc1ccc(O[C@@H]2O[C@H](CO)[C@@H](O)[C@H](O)[C@H]2O)cc1)C(=O)OCc1ccc(O[C@@H]2O[C@H](CO)[C@@H](O)[C@H](O)[C@H]2O)cc1 (stereo partly shown) [Parishin B] | -3.2
CCCCCCCCCCCCCCCCO [1-Hexadecanol] | -0.8
C[C@H](CCC(=O)O)[C@H]1CC[C@H]2[C@@H]3CC[C@@H]4C[C@H](O)CC[C@]4(C)[C@H]3C[C@@H](O)[C@]12C [3α,12β-Dihydroxycholanoic acid] | 0.4

A second format for 2 compounds above:

| SMILES | OC43 Inhibition rate [%] |
| --- | --- |
| CC1(C)O[C@H]2CC(=O)OC[C@]23[C@H]2CC[C@@]4(C)[C@H](c5ccoc5)OC(=O)[C@H]5O[C@]54[C@]2(C)[C@@H](O)C(=O)[C@@H]13 [Rutaevin] | -0.6 |
| C[C@H](CCC(=O)O)[C@H]1CC[C@H]2[C@@H]3CC[C@@H]4C[C@H](O)CC[C@]4(C)[C@H]3C[C@@H](O)[C@]12C [3α,12β-Dihydroxycholanoic acid] | 0.4 |
